# According to PubChem BioAssay AID2813 (NMMLSC, 2010):
# Amino acid sequences for entries named in this document (tags omitted).
# UniProt P13612, whole entry, looked up: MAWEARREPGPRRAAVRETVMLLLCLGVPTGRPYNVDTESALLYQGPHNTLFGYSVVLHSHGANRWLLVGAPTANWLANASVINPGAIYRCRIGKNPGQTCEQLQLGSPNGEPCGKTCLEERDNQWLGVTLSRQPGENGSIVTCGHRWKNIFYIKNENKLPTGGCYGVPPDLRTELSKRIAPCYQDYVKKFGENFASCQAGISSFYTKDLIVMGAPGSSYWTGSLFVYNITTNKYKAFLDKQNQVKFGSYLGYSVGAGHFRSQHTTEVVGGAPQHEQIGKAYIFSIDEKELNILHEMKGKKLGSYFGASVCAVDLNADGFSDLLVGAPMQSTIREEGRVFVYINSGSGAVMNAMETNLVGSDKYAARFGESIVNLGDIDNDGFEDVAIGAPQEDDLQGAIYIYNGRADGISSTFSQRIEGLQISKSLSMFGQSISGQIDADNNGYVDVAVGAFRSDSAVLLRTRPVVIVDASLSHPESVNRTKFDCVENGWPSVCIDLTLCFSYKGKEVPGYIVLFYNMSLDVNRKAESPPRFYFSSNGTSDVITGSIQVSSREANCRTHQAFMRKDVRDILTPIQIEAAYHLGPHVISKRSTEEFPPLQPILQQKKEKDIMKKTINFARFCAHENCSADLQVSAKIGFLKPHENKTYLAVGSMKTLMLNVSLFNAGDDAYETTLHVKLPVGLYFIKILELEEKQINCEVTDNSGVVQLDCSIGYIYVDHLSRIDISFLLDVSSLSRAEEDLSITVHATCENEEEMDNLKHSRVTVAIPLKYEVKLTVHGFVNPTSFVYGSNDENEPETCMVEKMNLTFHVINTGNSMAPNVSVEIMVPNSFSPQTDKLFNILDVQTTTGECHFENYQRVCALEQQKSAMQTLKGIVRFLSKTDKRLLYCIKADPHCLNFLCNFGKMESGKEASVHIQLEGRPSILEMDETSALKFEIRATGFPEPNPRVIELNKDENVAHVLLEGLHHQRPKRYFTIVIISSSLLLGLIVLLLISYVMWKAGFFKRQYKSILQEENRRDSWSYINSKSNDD
# About 20 (2%) of roughly 1,300 compounds were called active. Rule as the data show it: active = inhibition above about 40%; inactive = the rest. This is a selection; strong and weak results do not stand in their true shares.
# Target: Integrin alpha-4 (Homo sapiens) (UniProt P13612)
# Assay: VLA-4 modulation in picked hits – cell-based, cherry-picked plates, U937, HUTS-21 LIBS antibody, confirmation (AID 2813);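 also: 0% = ligand without compound and 100% = no ligand background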
# Conditions: U937 cells, HUTS-21 LIBS mAb binding, flow cytometry; at 6.7 µM; active compounds read high
row,Structure (SMILES),inhibition
1,O=c1c2ccccc2nc(-c2ccc(Cl)cc2Cl)n1-c1ccncc1,inactive: 0%
